Laboratory results taken from patent US5128448A (Hoffman-La Roche Inc., priority 1990, dated 1992).

Tests used:
[1] = general procedure: Boc solid-phase peptide synthesis; BHA, MBHA, PAM or PAL resin; DCC/HOBt; conditions: for step yield: late stage modification step, monoammonium salt; for isolated yield / crude mass: whole synthesis; for crude mass: scale 0.41 mmol
[2] = general procedure: Boc solid-phase peptide synthesis; BHA resin; DCC/HOBt; conditions: whole synthesis, scale 0.41 mmol

Substance “Ac-Tyr(SO3 H)-Met-Gly-(2)Nal-Met-Asp-(2)Nal-NH2” has a step yield [1] of 41%.

“Ac-Tyr(SO3 H)-Met-Gly-(2)Nal-Met-Asp-Cyclooctylalanine-NH2” gave a step yield [1] of 75%.

In the case of “Ac-Tyr(SO3 H)-Met-Gly-(2-Benzo[b]thiophenyl)alanine-Met-Asp-Phe-NH2”, the step yield [1] is reported as 55%.

In the case of “Ac-Tyr(SO3 H)-Met-Gly-(3-Quinolinyl)alanine-Met-Asp-Phe-NH2”, the step yield [1] is reported as 38%.

Work on “Ac-Tyr(SO3 H)-Met-Gly-(5,6,7,8-Tetrahydro-2-naphthyl)alanine-Met-Asp-Phe-NH2” yielded a step yield [1] of 50%.

For “Ac-Tyr(SO3 H)-Met-Gly-Trp-Met-Asp-(2)Nal-NH2”, the step yield [1] was 33%.

For “Ac-Tyr(SO3 H)-Met-Gly-Trp-Met-Asp-(2-Adamantyl)alanine-NH2”, the step yield [1] was 56%.

For “Ac-Tyr(SO3 H)-Met-Gly-Trp-Met-Asp-(5,6,7,8-Tetrahydro-2-naphthyl)alanine-NH2”, the step yield [1] was 50%.

Work on “Ac-Tyr(SO3 H)-Met-Gly-Trp-Met-Asp-(D)-(2)Nal-NH2” yielded a step yield [1] of 56%.

“Ac-Tyr(SO3 H)-Met-Gly-Trp-Met-Asp-(D)-Cyclohexylalanine-NH2” gave a step yield [1] of 65%.

In the case of “Ac-Tyr(SO3 H)-Met-Gly-Trp-Met-Asp-Cyclohexylmethylalanine-NH2”, the step yield [1] is reported as 33%.

Work on “Ac-Tyr(SO3 H)-Met-Gly-Trp-Met-Asp-Cyclooctylalanine-NH2” yielded a step yield [1] of 40%.

With “Ac-Tyr(SO3 H)-Met-Gly-Trp-Met-Asp-Dodecylalanine-NH2” the step yield [1] was 45%.

“Ac-Tyr(SO3 H)-Met-Gly-Trp-Met-Asp-cyclopentylalanine-NH2” showed a step yield [1] of 62%.

“Ac-Tyr(SO3 H)-Met-Gly-Trp-Met-Asp-tert-butylalanine-NH2” showed a step yield [1] of 38%.

Substance “Ac-Tyr(SO3 H)-Met-Gly-Trp-Met-Asp-trans-[4-(1,1-Dimethylethyl)cyclohexyl]alanine-NH.s ub.2” has a step yield [1] of 50%.

Work on “Ac-Tyr-Met-Gly-(2)Nal-Met-Asp-(2)Nal-NH2” yielded an isolated yield [1] of 15%.

Work on “Ac-Tyr-Met-Gly-(2)Nal-Met-Asp-Cyclohexylalanine-NH2” yielded an isolated yield [1] of 11%.

“Ac-Tyr-Met-Gly-(2)Nal-Met-Asp-Cyclooctylalanine-NH2” gave an isolated yield [1] of 11% and a crude mass [1] of 323.0 mg.

Work on Ac-Tyr-Met-Gly-Qua-Met-Asp-Phe-NH2 yielded an isolated yield [1] of 19%.

Substance Ac-Tyr-Met-Gly-Tna-Met-Asp-Phe-NH2 has an isolated yield [1] of 12% and a crude mass [1] of 460 mg.

With Ac-Tyr-Met-Gly-Trp-Met-Asp-(2)Nal-NH2 the isolated yield [1] was 28%.

With “Ac-Tyr-Met-Gly-Trp-Met-Asp-(2-Adamantyl)alanine-NH2” the isolated yield [1] was 24% and the crude mass [1] was 700 mg.

For “Ac-Tyr-Met-Gly-Trp-Met-Asp-(D)-(2)Nal-NH2”, the isolated yield [1] was 19%.

For “Ac-Tyr-Met-Gly-Trp-Met-Asp-(D)-cyclohexylalanine-NH2”, the isolated yield [1] was 12% and the crude mass [1] was 315 mg.

“Ac-Tyr-Met-Gly-Trp-Met-Asp-Cha(4-tBu)-NH2” showed an isolated yield [1] of 6% and a crude mass [2] of 306 mg.

Work on “Ac-Tyr-Met-Gly-Trp-Met-Asp-Cyclohexylmethylalanine-NH2” yielded an isolated yield [1] of 14% and a crude mass [1] of 375 mg.

For “Ac-Tyr-Met-Gly-Trp-Met-Asp-Cyclooctylalanine-NH2”, the isolated yield [1] was 9%.

With “Ac-Tyr-Met-Gly-Trp-Met-Asp-Cyclopentylalanine-NH2” the isolated yield [1] was 12%.

In the case of Ac-Tyr-Met-Gly-Trp-Met-Asp-Doa-NH2, the isolated yield [1] is reported as 2% and the crude mass [2] is reported as 150 mg.

For Ac-Tyr-Met-Gly-Trp-Met-Asp-Tna-NH2, the isolated yield [1] was 15% and the crude mass [2] was 540 mg.

“Ac-Tyr-Met-Gly-Trp-Met-Asp-tert-butyl-Ala-NH2” showed an isolated yield [1] of 16%.

With Ac-YMG[Bta]MDF-NH2 the isolated yield [1] was 18%.

In the case of “Desamino-Phe(4-CH2 COOH)-Met-Gly-Trp-Met-Asp-Cyclooctylalanine-NH2”, the isolated yield [1] is reported as 6%.

“desamino-Phe(4-CH2 COOH)-Met-Gly-Trp-Met-Asp-cyclohexylalanine-NH2” showed an isolated yield [1] of 11.4%.

Non-standard residues stand in square brackets, D forms with d. Bta = N[C@@H](Cc1csc2ccccc12)C(=O)O
